# Laboratory results taken from publication PMC8384837.
# Where a chain is given by its changes, count along the chain named. Some of the results follow. For some of these results: At the low end of the ranking, values are background and their order means little.
# Assays:
# Settings in all cases: yeast three-hybrid, YBZ-1, SC-Leu-His + 0.5 mM 3-AT, 4 days
# [1] = target: T1, PUM1 PUF domain R4-AGY N971A + H972G + Q975Y (UniProt Q14671)
# T1 sequence: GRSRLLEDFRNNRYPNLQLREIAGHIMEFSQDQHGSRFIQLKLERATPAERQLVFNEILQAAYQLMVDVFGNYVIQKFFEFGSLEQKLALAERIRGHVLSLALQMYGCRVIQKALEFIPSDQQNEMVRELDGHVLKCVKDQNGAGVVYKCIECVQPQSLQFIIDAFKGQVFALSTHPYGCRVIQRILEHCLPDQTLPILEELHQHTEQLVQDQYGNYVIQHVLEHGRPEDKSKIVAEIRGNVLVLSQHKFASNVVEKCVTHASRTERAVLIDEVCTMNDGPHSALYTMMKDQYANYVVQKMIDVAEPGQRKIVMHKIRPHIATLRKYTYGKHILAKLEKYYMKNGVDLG
# [2] = target: T2, PUM1 PUF domain R4-ALC N971A + H972L + Q975C (UniProt Q14671)
# T2 sequence: T1 sequence with G145L, Y148C
# [3] = target: T3, PUM1 PUF domain R4-ALG N971A + H972L + Q975G (Homo sapiens) (UniProt Q14671)
# T3 sequence: T1 sequence with G145L, Y148G
# [4] = target: T4, PUM1 PUF domain R4-ALS N971A + H972L + Q975S (Homo sapiens) (UniProt Q14671)
# T4 sequence: T1 sequence with G145L, Y148S
# [5] = target: T5, PUM1 PUF domain R4-ALY N971A + H972L + Q975Y (UniProt Q14671)
# T5 sequence: T1 sequence with G145L
# [6] = target: T6, PUM1 PUF domain R4-AQS N971A + H972Q + Q975S (Homo sapiens) (UniProt Q14671)
# T6 sequence: T1 sequence with G145Q, Y148S
# [7] = target: T7, PUM1 PUF domain R4-ARR N971A + H972R + Q975R (Homo sapiens) (UniProt Q14671)
# T7 sequence: T1 sequence with G145R, Y148R
# [8] = target: T8, PUM1 PUF domain R4-ARV N971A + H972R + Q975V (UniProt Q14671)
# T8 sequence: T1 sequence with G145R, Y148V
# [9] = target: T9, PUM1 PUF domain R4-CGC N971C + H972G + Q975C (Homo sapiens) (UniProt Q14671)
# T9 sequence: T1 sequence with A144C, Y148C
# [10] = target: T10, PUM1 PUF domain R4-CRA N971C + H972R + Q975A (Homo sapiens) (UniProt Q14671)
# T10 sequence: T1 sequence with A144C, G145R, Y148A
# [11] = target: T11, PUM1 PUF domain R4-CRL N971C + H972R + Q975L (Homo sapiens) (UniProt Q14671)
# T11 sequence: T1 sequence with A144C, G145R, Y148L
# [12] = target: T12, PUM1 PUF domain R4-CRR N971C + H972R + Q975R (Homo sapiens) (UniProt Q14671)
# T12 sequence: T1 sequence with A144C, G145R, Y148R
# [13] = target: T13, PUM1 PUF domain R4-DFG N971D + H972F + Q975G (Homo sapiens) (UniProt Q14671)
# T13 sequence: T1 sequence with A144D, G145F, Y148G
# [14] = target: T14, PUM1 PUF domain R4-DHG N971D + Q975G (Homo sapiens) (UniProt Q14671)
# T14 sequence: T1 sequence with A144D, G145H, Y148G
# [15] = target: T15, PUM1 PUF domain R4-DRC N971D + H972R + Q975C (Homo sapiens) (UniProt Q14671)
# T15 sequence: T1 sequence with A144D, G145R, Y148C
# [16] = target: T16, PUM1 PUF domain R4-DRG N971D + H972R + Q975G (UniProt Q14671)
# T16 sequence: T1 sequence with A144D, G145R, Y148G
# [17] = target: T17, PUM1 PUF domain R4-EHL N971E + Q975L (Homo sapiens) (UniProt Q14671)
# T17 sequence: T1 sequence with A144E, G145H, Y148L
# [18] = target: T18, PUM1 PUF domain R4-GPY N971G + H972P + Q975Y (Homo sapiens) (UniProt Q14671)
# T18 sequence: T1 sequence with A144G, G145P
# [19] = target: T19, PUM1 PUF domain R4-GQR N971G + H972Q + Q975R (Homo sapiens) (UniProt Q14671)
# T19 sequence: T1 sequence with A144G, G145Q, Y148R
# [20] = target: T20, PUM1 PUF domain R4-GQS N971G + H972Q + Q975S (Homo sapiens) (UniProt Q14671)
# T20 sequence: T1 sequence with A144G, G145Q, Y148S
# [21] = target: T21, PUM1 PUF domain R4-GRN N971G + H972R + Q975N (Homo sapiens) (UniProt Q14671)
# T21 sequence: T1 sequence with A144G, G145R, Y148N
# [22] = target: T22, PUM1 PUF domain R4-GRR N971G + H972R + Q975R (Homo sapiens) (UniProt Q14671)
# T22 sequence: T1 sequence with A144G, G145R, Y148R
# [23] = target: T23, PUM1 PUF domain R4-LGC N971L + H972G + Q975C (Homo sapiens) (UniProt Q14671)
# T23 sequence: T1 sequence with A144L, Y148C
# [24] = target: T24, PUM1 PUF domain R4-LGL N971L + H972G + Q975L (UniProt Q14671)
# T24 sequence: T1 sequence with A144L, Y148L
# [25] = target: T25, PUM1 PUF domain R4-LGM N971L + H972G + Q975M (Homo sapiens) (UniProt Q14671)
# T25 sequence: T1 sequence with A144L, Y148M
# [26] = target: T26, PUM1 PUF domain R4-LRC N971L + H972R + Q975C (Homo sapiens) (UniProt Q14671)
# T26 sequence: T1 sequence with A144L, G145R, Y148C
# [27] = target: T27, PUM1 PUF domain R4-MLC N971M + H972L + Q975C (UniProt Q14671)
# T27 sequence: T1 sequence with A144M, G145L, Y148C
# [28] = target: T28, PUM1 PUF domain R4-PRC N971P + H972R + Q975C (UniProt Q14671)
# T28 sequence: T1 sequence with A144P, G145R, Y148C
# [29] = target: T29, PUM1 PUF domain R4-PRQ N971P + H972R (Homo sapiens) (UniProt Q14671)
# T29 sequence: T1 sequence with A144P, G145R, Y148Q
# [30] = target: T30, PUM1 PUF domain R4-PTC N971P + H972T + Q975C (UniProt Q14671)
# T30 sequence: T1 sequence with A144P, G145T, Y148C
# [31] = target: T31, PUM1 PUF domain R4-QRG N971Q + H972R + Q975G (Homo sapiens) (UniProt Q14671)
# T31 sequence: T1 sequence with A144Q, G145R, Y148G
sequence,measurement,setting,value
GGCUAGAACUAGUGGAUCCCCCGGCGCCCGGCGGCUCGAGCCCGGGUAAGUGUAUAUAGUCUGCAUGCCGCCGGGCGCCAUGCCUGCAGGUCGACUCUAGAAAACAUG,binding signal (log2 enrichment (interaction score)),[1],< -6.72
same,binding signal (log2 enrichment (interaction score)),[2],< -6.36
same,binding signal (log2 enrichment (interaction score)),[3],-4.21
same,binding signal (log2 enrichment (interaction score)),[4],-5.4
same,binding signal (log2 enrichment (interaction score)),[5],< -5.87
same,binding signal (log2 enrichment (interaction score)),[6],-1.28
same,binding signal (log2 enrichment (interaction score)),[7],-0.49
same,binding signal (log2 enrichment (interaction score)),[8],< -4.84
same,binding signal (log2 enrichment (interaction score)),[9],1.24
same,binding signal (log2 enrichment (interaction score)),[10],1.56
same,binding signal (log2 enrichment (interaction score)),[11],-2.13
same,binding signal (log2 enrichment (interaction score)),[12],-2.26
same,binding signal (log2 enrichment (interaction score)),[13],-0.28
same,binding signal (log2 enrichment (interaction score)),[14],-1.95
same,binding signal (log2 enrichment (interaction score)),[15],-1.61
same,binding signal (log2 enrichment (interaction score)),[16],-6.58
same,binding signal (log2 enrichment (interaction score)),[17],0.72
same,binding signal (log2 enrichment (interaction score)),[18],-1.54
same,binding signal (log2 enrichment (interaction score)),[19],-2.06
same,binding signal (log2 enrichment (interaction score)),[20],0.31
same,binding signal (log2 enrichment (interaction score)),[21],0.21
same,binding signal (log2 enrichment (interaction score)),[22],-1.91
same,binding signal (log2 enrichment (interaction score)),[23],-1.77
same,binding signal (log2 enrichment (interaction score)),[24],-4.83
same,binding signal (log2 enrichment (interaction score)),[25],-3.38
same,binding signal (log2 enrichment (interaction score)),[26],-2.26
same,binding signal (log2 enrichment (interaction score)),[27],< -7.75
same,binding signal (log2 enrichment (interaction score)),[28],-5.19
same,binding signal (log2 enrichment (interaction score)),[29],-3.92
same,binding signal (log2 enrichment (interaction score)),[30],< -5.9
same,binding signal (log2 enrichment (interaction score)),[31],0.3

# Given with tabs: part of the list above
sequence	measurement	setting	value
GGCUAGAACUAGUGGAUCCCCCGGCGCCCGGCGGCUCGAGCCCGGGUAAGUGUAUAUAGUCUGCAUGCCGCCGGGCGCCAUGCCUGCAGGUCGACUCUAGAAAACAUG	binding signal (log2 enrichment (interaction score))	[14]	-1.95
same	binding signal (log2 enrichment (interaction score))	[20]	0.31
